Data taken from PubChem BioAssay AID662 (National Center for Advancing Translational Sciences (NCATS), 2007).
This is one part of the list. These are further read-outs of the screen, such as a control signal, another cell line or another target. No call is given for them. The list favours compounds with an active or inconclusive main result. Potencies come from curve fits of mixed quality, noted in brackets.

Assay: Cell signaling CRE-BLA (Fsk stim)
Conditions: CHO CRE-bla reporter (cAMP response element driving beta-lactamase), forskolin EC10, beta-lactamase ratio; measured here: 460 nm blue channel
Method in brief: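 AC50 values, positive or negative, reflect shifts in EC10 NKH 477-induced CRE-bla reporter activity in CHO cells. Incubation lasted 3 h at 37 °C before CCF4 substrate (2 h, room temperature) and ratiometric 460/530 nm reading.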

Structure (SMILES) | AC50
C=C(C)COc1ccc(-c2n[nH]c(C)c2Oc2ccccc2OC)c(O)c1 | 10 µM [falling, partial curve]
Cc1ccc(C)c(N2CCN(C(=O)c3ccc(CS(=O)(=O)c4ccccc4C)o3)CC2)c1 | 10 µM [falling, single point]
Cc1csc2nc(CSc3nc4ccccc4o3)c(Br)n12 | 2.51 µM [rising, full curve, poor fit]
CCS(=O)(=O)N1CCC(C(=O)NCc2ccccc2OC)CC1 | 7.94 µM [falling, partial curve, poor fit]
CCn1c(-c2cc(OC)c(OC)c(OC)c2)n[nH]c1=S | 12.6 µM [rising, single point]
CC(C)COc1ccc(C(=O)OCCN2CCOCC2)cc1 | 3.16 µM [falling, single point]
Cc1cc(N2CCCCC2)nc(SCc2ccc(C#N)cc2)n1 | 10 µM [rising, partial curve]
COC(=O)c1nnn(-c2nonc2N)c1CSc1ccccn1 | 3.98 µM [rising, partial curve]
COC(=O)c1c(N)c(C#N)c(C)n1-c1ccccc1 | 20 µM [rising, single point]
O=C(Nc1ccccc1-c1ccccc1)c1cnccn1 | 12.6 µM [rising, partial curve]
COC(=O)c1sccc1NC(=O)c1ccncc1 | 6.31 µM [rising, partial curve]
Nn1cnnc1SCC(=O)Nc1ccc(C2CCCCC2)cc1 | 15.8 µM [falling, single point]
O=C(CCS(=O)(=O)c1cccc2nonc12)N1CCN(c2ccc(F)cc2)CC1 | 0.00398 µM [falling, full curve, poor fit]
Cc1cccn2c(=O)c3cc(C#N)c(=NC(=O)c4ccncc4)n(CCCOC(C)C)c3nc12 | 12.6 µM [rising, partial curve]
CCCCCNC(=O)c1ccc2c(=O)[nH]c3c(C(=O)NCC4CCCO4)sc(=S)n3c2c1 (centres undefined) | 0.00398 µM [falling, full curve, poor fit]
C/C(Cl)=C/Cn1c(SC(C)C)nc2c1c(=O)[nH]c(=O)n2C | 5.01 µM [rising, partial curve]
Oc1c(C(c2ccccc2)N2CCN(Cc3ccccc3)CC2)sc2ncnn12 (centres undefined) | 15.8 µM [falling, partial curve]
Cc1cccn2c(=O)c3cc(C(=O)N4c5ccccc5CC4C)n(C)c3nc12 (centres undefined) | 0.794 µM [rising, full curve]
CC(C)COc1ccc(-c2nnc(-c3ccco3)o2)cc1 | 12.6 µM [rising, partial curve]

3 entries from above, comma-delimited.
Structure (SMILES),AC50
COC(=O)c1c(N)c(C#N)c(C)n1-c1ccccc1,"20 µM [rising, single point]"
O=C(Nc1ccccc1-c1ccccc1)c1cnccn1,"12.6 µM [rising, partial curve]"
COC(=O)c1sccc1NC(=O)c1ccncc1,"6.31 µM [rising, partial curve]"
